For one substance, binding results are on record in publication PMC5087658, “Essential role of the Dishevelled DEP domain in a Wnt-dependent human-cell-based complementation assay” (Journal of Cell Science, 2016).

Sequences of proteins named here, by UniProt entry; tags and fusion partners are left off. A change or cut given only in a name is not applied to a line headed by its entry. Residues count along the entry.
UniProt Q13467, residues 27-585: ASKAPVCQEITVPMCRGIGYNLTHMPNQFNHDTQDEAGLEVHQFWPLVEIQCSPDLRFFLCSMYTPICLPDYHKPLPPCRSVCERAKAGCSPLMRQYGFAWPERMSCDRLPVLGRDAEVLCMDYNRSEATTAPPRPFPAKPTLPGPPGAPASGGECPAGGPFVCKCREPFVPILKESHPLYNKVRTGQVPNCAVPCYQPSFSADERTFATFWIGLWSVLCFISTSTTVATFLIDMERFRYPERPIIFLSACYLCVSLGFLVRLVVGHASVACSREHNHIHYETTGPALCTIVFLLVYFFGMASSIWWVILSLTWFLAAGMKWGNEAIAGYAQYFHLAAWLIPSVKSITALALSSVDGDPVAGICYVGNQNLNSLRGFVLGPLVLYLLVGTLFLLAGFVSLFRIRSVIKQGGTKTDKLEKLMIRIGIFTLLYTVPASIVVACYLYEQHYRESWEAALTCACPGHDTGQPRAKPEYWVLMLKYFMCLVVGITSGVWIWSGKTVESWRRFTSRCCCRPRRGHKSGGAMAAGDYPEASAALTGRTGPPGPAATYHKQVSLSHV
UniProt O14641: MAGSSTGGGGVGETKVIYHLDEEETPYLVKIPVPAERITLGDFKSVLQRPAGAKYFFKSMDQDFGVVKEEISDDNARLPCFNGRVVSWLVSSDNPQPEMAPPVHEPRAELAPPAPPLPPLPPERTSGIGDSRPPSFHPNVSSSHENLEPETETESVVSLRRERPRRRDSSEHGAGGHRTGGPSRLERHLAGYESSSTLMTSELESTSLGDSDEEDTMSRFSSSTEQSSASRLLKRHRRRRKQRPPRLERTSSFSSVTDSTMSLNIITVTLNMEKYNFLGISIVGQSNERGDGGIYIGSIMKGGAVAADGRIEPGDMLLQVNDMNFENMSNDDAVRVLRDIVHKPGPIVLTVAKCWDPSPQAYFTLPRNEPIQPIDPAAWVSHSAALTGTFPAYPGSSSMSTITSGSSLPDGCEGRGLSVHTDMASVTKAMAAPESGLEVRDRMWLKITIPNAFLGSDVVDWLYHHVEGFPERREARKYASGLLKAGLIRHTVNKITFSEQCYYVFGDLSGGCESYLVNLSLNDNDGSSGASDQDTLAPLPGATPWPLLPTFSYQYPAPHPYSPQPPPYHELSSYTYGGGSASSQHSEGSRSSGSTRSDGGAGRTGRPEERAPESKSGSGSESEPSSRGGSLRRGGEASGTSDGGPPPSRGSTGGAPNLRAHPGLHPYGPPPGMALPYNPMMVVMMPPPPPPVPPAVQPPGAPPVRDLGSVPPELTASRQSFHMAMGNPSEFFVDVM

Results are given in words; binding and its absence hold for the method and conditions named. Binding calls can cover weak binding; strength is not graded here.

The experiment addresses SNAP–FZD5 (UniProt Q13467). The experiment can be described thus: recruitment assay (GFP fusion recruited to membrane-associated SNAP–FZD5 in co-transfected cells, confocal microscopy); co-overexpression of DVL2–GFP or DEP–GFP with SNAP–FZD5 in HEK293T cells; 100 cells scored for DEP–GFP.

“DEP–GFP, wt (minimal DEP domain of DVL2) (from UniProt O14641) (domain or fragment)”: the binding entry was “binds”.
